Data as given in PubChem BioAssay AID504784 (Drosophila RNAi Screening Center, 2011).
The deposit covers about 17,000 reagents; shown is an unselected part of those with a known target gene and a result. 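Each column is one replicate's B-score; the combined score over replicates was not deposited, so single values may mislead.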 The numbers tell different reagents against one gene apart.

- Aim: 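Search for regulators of lipid droplet storage in oleate-fed fly cells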 (primary screen)
- Cell system: Drosophila Kc167 embryonic cells
- Reagent: long dsRNA against Drosophila genes, about 250 ng dsRNA per well
- Time to read-out: 4 days
- Conditions: cells fed 400 µM oleic acid bound to BSA
- Measured: 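Microscope images give a droplet-to-nucleus area ratio, taken as log and converted to a screen-wide B-score; higher values mean greater lipid storage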
- Scale: droplet/nuclear area B-score: higher = more stored lipid (overstorage)

Target gene,reagent,"droplet/nuclear area B-score, replicate 1","droplet/nuclear area B-score, replicate 2","droplet/nuclear area B-score, replicate 3"
Drs (Drosomycin),1,-0.667,-0.331,
Miox (Myo-inositol oxygenase),1,-0.508,0.814,
sgl (sugarless),1,-0.00449,0.00139,
aos (argos),1,1.85,-0.601,
mrj,1,0.682,0.427,
CG9568,1,0.0511,2.82,1.6
Dop2R (Dopamine 2-like receptor),1,0.792,0.79,
stol (stolid),1,-0.986,-0.11,
ODA-Dnal1 (Outer dynein arm dynein axonemal light chain 1),1,-0.675,-0.086,
CG5906,1,-0.0314,-0.402,
CG10550,1,-0.248,,
CG5810,1,-0.569,-1.04,
CG5810,2,-0.779,0.859,
CG8389,1,0.197,1.47,
CG8389,2,-0.693,-0.162,
Jon66Cii (Jonah 66Cii),1,-0.24,-0.148,
CG32115,1,-0.0411,0.0495,
CG3345,1,-0.459,-1.11,
CG30349,1,0.065,2.2,
CG30349,2,-0.0436,-0.6,
CG11664,1,1.22,1.19,
hebe,1,-0.284,1.66,
hebe,2,0.577,-1.5,2.22
hebe,3,-1.22,-1.91,
CG32006,1,-1.38,-0.00712,
TfIIFalpha (Transcription factor IIFalpha),1,0.126,-0.0174,
D (Dichaete),1,2.35,0.302,
CG11912,1,0.655,-0.141,
EMC8-9 (ER membrane protein complex subunit 8/9),1,1.05,1.19,
Icmt (Isoprenylcysteine carboxyl methyltransferase),1,-0.0643,-0.0561,
sfl (sulfateless),1,-1.59,0.0913,
sfl (sulfateless),2,-0.619,0.179,
Rcd7 (Reduction in Cnn dots 7),1,-1.74,-1.03,
COX6AL (Cytochrome c oxidase subunit 6A-like),1,0.037,0.564,
